The M2OR odorant receptor database
Changes are numbered by the printed parent chain. The list shows a part of the results. Calls are pooled over several reports, among them a noisy single-well screen.

Chains of the proteins cited; added tags and fusions are not shown. A line that says so, or that is headed by a name, gives the form on record, which may keep a tag or linker.
O11H2, as listed by the source: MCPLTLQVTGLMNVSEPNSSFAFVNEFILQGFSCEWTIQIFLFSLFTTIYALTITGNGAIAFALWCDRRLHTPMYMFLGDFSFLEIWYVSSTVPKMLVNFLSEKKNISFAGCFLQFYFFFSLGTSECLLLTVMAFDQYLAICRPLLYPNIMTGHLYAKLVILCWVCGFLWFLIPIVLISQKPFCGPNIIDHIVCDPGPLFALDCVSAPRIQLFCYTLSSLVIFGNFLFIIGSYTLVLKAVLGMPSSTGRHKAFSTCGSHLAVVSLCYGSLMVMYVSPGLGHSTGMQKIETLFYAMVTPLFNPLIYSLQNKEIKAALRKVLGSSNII
O13A1, as listed by the source: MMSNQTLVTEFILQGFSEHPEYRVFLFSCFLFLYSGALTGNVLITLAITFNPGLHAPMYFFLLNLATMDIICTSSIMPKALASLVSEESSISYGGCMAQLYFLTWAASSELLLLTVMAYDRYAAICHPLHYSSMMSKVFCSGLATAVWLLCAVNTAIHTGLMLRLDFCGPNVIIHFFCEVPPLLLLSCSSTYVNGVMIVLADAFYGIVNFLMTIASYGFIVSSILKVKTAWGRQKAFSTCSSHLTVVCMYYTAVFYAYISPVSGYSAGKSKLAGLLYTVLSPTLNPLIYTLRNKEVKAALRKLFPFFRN

How the values were obtained:
Conditions in all cases: stereoisomer not certain
[1] = test system: T1, O11H1
T1 sequence (whole entry): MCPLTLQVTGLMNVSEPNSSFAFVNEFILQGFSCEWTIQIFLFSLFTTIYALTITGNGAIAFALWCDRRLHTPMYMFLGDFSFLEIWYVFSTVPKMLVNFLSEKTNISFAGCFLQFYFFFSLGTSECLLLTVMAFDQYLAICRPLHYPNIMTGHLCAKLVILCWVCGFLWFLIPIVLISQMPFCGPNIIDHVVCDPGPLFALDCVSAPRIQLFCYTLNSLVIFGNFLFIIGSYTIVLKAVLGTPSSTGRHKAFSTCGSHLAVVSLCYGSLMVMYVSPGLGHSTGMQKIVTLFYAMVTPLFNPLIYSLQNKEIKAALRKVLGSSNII
Summary of the method: (§1)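 Assay methods differ from source to source, frequently being transient luciferase assays in mammalian cell lines. For each receptor–molecule pair, the label responsive (active) applies when the original authors judged the measured signal statistically different from baseline, and non-responsive (inactive) applies otherwise.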

[2] = test system: T2, O11H1; remark: listed apart in the source
T2 sequence (whole entry): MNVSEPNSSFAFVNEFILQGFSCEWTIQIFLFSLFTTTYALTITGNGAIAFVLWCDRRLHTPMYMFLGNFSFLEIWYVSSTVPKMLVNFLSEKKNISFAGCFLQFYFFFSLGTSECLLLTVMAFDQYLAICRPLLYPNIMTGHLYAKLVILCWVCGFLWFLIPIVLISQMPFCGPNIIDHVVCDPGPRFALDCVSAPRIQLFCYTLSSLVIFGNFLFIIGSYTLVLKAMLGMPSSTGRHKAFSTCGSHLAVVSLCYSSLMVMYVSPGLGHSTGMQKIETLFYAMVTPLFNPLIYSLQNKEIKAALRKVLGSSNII
Summary of the method: as §1

[3] = test system: T3, O11H2
T3 sequence (whole entry): T1 sequence (whole entry) with F90S, T105K, H146L, C156Y, M181K, V192I, N218S, I235L, T243M, V289E
Summary of the method: as §1

[4] = test system: T4, O11H4
T4 sequence (whole entry): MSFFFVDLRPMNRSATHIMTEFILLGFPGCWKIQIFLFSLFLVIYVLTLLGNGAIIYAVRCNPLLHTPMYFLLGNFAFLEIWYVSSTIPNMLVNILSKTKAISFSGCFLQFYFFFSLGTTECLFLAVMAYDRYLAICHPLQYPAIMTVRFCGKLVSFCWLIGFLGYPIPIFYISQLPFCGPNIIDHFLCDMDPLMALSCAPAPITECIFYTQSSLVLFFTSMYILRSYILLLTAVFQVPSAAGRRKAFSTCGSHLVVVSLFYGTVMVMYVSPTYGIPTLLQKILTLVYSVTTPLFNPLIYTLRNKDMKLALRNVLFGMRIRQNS
Summary of the method: as §1

[5] = test system: T5, O11L1
T5 sequence (whole entry): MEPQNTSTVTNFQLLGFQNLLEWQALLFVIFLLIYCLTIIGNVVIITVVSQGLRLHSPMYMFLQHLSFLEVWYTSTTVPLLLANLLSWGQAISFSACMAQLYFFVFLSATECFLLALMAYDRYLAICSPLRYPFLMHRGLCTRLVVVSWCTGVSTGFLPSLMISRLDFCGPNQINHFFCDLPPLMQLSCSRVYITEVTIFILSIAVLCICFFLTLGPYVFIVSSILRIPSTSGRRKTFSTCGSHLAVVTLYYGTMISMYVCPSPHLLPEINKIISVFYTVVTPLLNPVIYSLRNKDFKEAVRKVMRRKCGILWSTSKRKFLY
Summary of the method: as §1

[6] = test system: T6, O12D2
T6 sequence (whole entry): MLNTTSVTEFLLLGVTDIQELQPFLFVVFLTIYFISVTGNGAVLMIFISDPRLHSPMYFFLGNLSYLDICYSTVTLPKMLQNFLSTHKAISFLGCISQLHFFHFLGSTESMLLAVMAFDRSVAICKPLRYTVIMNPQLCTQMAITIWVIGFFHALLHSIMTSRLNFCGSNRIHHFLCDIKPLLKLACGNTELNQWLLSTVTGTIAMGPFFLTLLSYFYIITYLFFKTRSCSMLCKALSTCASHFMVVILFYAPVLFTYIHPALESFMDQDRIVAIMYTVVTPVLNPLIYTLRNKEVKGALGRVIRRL
Summary of the method: as §1

[7] = test system: T7, O13C3
T7 sequence (whole entry): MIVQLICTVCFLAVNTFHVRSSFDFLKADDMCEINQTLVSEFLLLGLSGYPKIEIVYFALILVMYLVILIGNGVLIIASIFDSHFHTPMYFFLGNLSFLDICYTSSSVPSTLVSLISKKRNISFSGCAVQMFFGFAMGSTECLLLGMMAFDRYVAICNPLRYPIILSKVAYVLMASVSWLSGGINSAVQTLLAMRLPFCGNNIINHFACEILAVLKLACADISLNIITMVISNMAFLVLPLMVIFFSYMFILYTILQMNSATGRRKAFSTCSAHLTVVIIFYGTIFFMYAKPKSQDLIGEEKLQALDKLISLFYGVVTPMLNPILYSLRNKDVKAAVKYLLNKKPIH
Summary of the method: as §1

[8] = test system: T8, O13C5
T8 sequence (whole entry): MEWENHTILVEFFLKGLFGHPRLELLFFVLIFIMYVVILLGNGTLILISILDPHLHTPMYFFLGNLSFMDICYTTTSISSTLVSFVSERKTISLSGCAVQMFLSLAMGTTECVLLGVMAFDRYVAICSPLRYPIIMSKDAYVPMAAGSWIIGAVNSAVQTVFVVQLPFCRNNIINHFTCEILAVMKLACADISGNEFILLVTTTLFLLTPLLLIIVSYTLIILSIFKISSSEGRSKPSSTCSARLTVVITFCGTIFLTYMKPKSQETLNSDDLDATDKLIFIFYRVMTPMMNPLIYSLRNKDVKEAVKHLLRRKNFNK
Summary of the method: as §1

[9] = test system: T9, O13C7
T9 sequence (whole entry): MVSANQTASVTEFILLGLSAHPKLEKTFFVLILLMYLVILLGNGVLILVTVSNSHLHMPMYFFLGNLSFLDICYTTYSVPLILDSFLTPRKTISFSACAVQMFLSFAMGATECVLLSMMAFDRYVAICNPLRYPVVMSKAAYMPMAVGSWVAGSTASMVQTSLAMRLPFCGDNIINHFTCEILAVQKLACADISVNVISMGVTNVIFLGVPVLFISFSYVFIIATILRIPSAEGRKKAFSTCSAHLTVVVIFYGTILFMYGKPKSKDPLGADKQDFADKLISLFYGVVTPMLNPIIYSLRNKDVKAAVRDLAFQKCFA
Summary of the method: as §1

[10] = test system: T10, O13C9
T10 sequence (whole entry): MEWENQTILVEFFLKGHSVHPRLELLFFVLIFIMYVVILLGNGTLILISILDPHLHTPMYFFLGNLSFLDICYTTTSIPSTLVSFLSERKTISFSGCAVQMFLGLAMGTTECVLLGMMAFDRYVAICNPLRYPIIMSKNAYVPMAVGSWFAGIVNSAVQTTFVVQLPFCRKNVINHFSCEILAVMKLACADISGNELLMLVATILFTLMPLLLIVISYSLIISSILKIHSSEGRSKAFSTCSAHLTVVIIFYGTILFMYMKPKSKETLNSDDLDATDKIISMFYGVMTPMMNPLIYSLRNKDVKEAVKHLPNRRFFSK
Summary of the method: as §1

[11] = test system: T11, O13D1
T11 sequence (whole entry): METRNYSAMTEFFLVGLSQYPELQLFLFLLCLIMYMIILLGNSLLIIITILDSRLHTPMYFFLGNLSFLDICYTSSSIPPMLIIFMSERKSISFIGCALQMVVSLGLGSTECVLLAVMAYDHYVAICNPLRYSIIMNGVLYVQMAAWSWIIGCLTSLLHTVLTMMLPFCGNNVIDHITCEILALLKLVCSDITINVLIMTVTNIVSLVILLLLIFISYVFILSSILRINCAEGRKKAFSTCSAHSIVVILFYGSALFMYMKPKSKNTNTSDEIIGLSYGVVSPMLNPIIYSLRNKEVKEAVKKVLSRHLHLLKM
Summary of the method: as §1

[12] = test system: T12, O13D1; remark: listed apart in the source
T12 sequence (whole entry): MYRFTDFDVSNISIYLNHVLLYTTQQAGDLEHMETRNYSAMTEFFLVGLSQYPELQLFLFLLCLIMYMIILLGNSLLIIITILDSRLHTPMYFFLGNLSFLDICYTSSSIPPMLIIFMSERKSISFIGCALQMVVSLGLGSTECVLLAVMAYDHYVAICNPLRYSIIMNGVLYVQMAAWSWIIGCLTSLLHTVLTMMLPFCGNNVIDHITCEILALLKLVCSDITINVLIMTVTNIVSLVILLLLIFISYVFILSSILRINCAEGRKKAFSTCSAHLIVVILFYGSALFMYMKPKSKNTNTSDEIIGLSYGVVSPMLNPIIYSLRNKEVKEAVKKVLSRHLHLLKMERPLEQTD
Summary of the method: as §1

[13] = test system: T13, O13F1
T13 sequence (whole entry): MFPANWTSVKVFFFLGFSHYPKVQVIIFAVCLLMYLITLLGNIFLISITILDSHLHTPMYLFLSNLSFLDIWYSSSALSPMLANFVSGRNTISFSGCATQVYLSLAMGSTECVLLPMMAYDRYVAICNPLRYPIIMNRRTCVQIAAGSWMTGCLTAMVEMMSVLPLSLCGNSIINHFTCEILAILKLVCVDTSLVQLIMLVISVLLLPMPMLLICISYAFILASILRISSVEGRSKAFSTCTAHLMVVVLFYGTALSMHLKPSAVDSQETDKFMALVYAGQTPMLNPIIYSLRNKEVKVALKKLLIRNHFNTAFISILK
Summary of the method: as §1

[14] = test system: T14, O13G1
T14 sequence (whole entry): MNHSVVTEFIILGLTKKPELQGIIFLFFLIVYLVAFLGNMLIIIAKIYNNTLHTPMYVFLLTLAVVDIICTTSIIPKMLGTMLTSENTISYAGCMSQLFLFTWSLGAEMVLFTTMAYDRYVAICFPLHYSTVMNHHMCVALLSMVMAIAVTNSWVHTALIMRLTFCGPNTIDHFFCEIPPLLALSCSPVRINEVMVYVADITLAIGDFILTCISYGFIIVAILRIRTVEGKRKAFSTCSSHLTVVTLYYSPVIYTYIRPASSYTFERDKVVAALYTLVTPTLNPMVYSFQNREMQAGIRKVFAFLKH
Summary of the method: as §1

[15] = test system: T15, O13J1
T15 sequence (whole entry): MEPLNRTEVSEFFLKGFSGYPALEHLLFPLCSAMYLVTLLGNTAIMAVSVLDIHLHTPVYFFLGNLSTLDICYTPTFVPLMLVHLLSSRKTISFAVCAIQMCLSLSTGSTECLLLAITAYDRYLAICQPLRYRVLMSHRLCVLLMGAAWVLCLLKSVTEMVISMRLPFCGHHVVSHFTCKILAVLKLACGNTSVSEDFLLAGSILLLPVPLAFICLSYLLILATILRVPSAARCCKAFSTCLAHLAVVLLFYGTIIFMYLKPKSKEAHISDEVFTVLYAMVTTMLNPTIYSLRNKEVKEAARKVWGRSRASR
Summary of the method: as §1

[16] = test system: O13A1
Summary of the method: as §1

Measured: odorant receptor agonist call

COc1cc(C=O)ccc1O
not listed: [16]
inactive: all other assays above

CC1=NC(C)SC1C (stereo not given)
not listed: [2]
inactive: all other assays above

CC(C)C(=O)O
not listed: [16]
inactive: all other assays above

CCCCO
not listed: [16]
inactive: all other assays above

CCCCCCCCCC=O
not listed: [16]
inactive: all other assays above

CC(=O)OCC=C(C)CCC=C(C)C
active: [4]
not listed: [16]
inactive: all other assays above

CC(=O)OC1CC2CCC1(C)C2(C)C (stereo not given)
not listed: [16]
inactive: all other assays above

CCCCCCCCOC(C)=O
not listed: [16]
inactive: all other assays above

CCCC(=O)O
not listed: [16]
inactive: all other assays above

CCCCCCCC=O
not listed: [16]
inactive: all other assays above
